The results in this text go back to patent publication US6593295 (dated 2003).

One purity is given for all peptides; the source may state it once.

The nature of the data set: general procedure: Fmoc solid-phase peptide synthesis; Fmoc protected Rink Amide MBHA resin; HBTU with NMM activation in DMF. Particulars: whole synthesis, RP-HPLC mass spectrometry, Hewlett Packard LCMS-1100 with diode array detector and electro-spray ionization, scale of the general procedure 100 μmole, 4TFA.

For “D-Ala^8 GLP-1 (7-36)-Lys^37(ε-MPA)-NH2.4TFA”, the “final LC-MS purity” value is listed as over 95%.

In the case of “D-Ala^8 GLP-1 (7-36)-Lys^37(ε-AEEA-AEEA-MPA)-NH2.4TFA”, the “final LC-MS purity” value was over 95%.
